Results from publication PMC8285540.
Results are given in words; binding and its absence hold for the method and conditions named. Binding seen in cells or lysates may run through a third protein. Some binding calls cover weakened binding; strength is not graded here. Where a sequence is shown, tags or fusion partners need not be part of it.

Columns and labels:
[1] = target: T1, mutant FBXO32 (Gly243Arg) carrying a Flag epitope (human) (UniProt Q969P5); assay: co-IP; HEK293 cells co-transfected with Flag-FBXO32 (WT or mutant) and FLAG-tagged ATF2; FBXO32 immunoprecipitated with anti-FBXO32 antibody, blot with anti-ATF2 antibody; control IgG
T1 sequence: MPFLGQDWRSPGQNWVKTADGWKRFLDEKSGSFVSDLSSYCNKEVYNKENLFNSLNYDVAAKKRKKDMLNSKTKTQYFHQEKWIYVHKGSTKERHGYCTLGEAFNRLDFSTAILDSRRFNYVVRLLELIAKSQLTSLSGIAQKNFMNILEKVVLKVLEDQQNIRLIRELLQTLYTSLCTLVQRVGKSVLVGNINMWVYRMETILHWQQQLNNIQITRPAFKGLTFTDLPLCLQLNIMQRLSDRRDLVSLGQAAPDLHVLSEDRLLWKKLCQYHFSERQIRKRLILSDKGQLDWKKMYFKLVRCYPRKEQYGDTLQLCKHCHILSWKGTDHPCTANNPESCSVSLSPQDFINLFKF

[2] = target: T2, wild-type FBXO32 carrying a Flag epitope (FBXO32-FLAG) (human) (UniProt Q969P5); assay: as above
T2 sequence: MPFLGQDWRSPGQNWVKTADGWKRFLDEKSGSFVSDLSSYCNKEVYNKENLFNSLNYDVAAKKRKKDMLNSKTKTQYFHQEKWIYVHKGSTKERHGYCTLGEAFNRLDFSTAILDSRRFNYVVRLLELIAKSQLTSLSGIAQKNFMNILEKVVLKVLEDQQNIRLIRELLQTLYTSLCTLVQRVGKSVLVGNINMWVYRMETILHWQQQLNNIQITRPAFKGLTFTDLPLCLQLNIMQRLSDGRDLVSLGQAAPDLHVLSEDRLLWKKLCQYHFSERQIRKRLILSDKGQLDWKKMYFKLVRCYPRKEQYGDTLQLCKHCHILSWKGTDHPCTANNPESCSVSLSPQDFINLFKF

- binding [1]: binds
- binding [2]: binds
B1: ATF2 carrying a Flag epitope (ATF2-FLAG) (protein, UniProt P15336 1-505)
chain: MKFKLHVNSARQYKDLWNMSDDKPFLCTAPGCGQRFTNEDHLAVHKHKHEMTLKFGPARNDSVIVADQTPTPTRFLKNCEEVGLFNELASPFENEFKKASEDDIKKMPLDLSPLATPIIRSKIEEPSVVETTHQDSPLPHPESTTSDEKEVPLAQTAQPTSAIVRPASLQVPNVLLTSSDSSVIIQQAVPSPTSSTVITQAPSSNRPIVPVPGPFPLLLHLPNGQTMPVAIPASITSSNVHVPAAVPLVRPVTMVPSVPGIPGPSSPQPVQSEAKMRLKAALTQQHPPVTNGDTVKGHGSGLVRTQSEESRPQSLQQPATSTTETPASPAHTTPQTQSTSGRRRRAANEDPDEKRRKFLERNRAAASRCRQKRKVWVQSLEKKAEDLSSLNGQLQSEVTLLRNEVAQLKQLLLAHKDCPVTAMQKKSGYHTADKDDSSEDISVPSSPHTEAIQHSSVSTSNGVSSTSKAEAVATSVLTQMADQSTEPALSQIVMAPSSQSQPSGS
